System: ER-positive metastatic breast cancer
Experiment: Phase 2 clinical trial (G200801), 9 mg daily
Type: in vivo, women
Method: The goal of this study was to determine the importance of the AR status as a therapeutic target in women with ER-positive metastatic breast cancer (MBC) that had previously responded to hormone therapy. The treatment was continued until disease progression (PD).
CBR will be correlated with AR status of metastatic tumor biopsy.
Serum prostate specific antigen (PSA) was evaluated as a biomarker of AR activity.
Female subjects with ER-positive metastatic breast cancer who have previously been treated with up to 3 prior hormonal therapies for the treatment of breast cancer. […]
Measurable and non-measurable lesions (primary and/or metastatic) were identified and assessed by a modified Response Evaluation Criteria In Solid Tumors (RECIST 1.1) classification over the course of this study (described in detail below).
The primary efficacy analysis was the clinical benefit in subjects with AR-positive breast cancer at 6 months as measured by a modified Response Evaluation Criteria In Solid Tumors (RECIST 1.1) classification. Key secondary endpoints of clinical benefit in all subjects and AR-negative subjects, as well as objective response rate, progression free survival, time to progression, duration of response, incidence of SREs, and time to first SRE in subsets based on AR status (i.e., all subjects, AR-positive subjects, and AR-negative subjects) was also assessed. […]

SMILES: C[C@](O)(COc1ccc(C#N)cc1)C(=O)Nc1ccc(C#N)c(C(F)(F)F)c1 [Formula IX, (S)—N-(4-Cyano-3-(trifluoromethyl)phenyl)-3-(4-cyanophenoxy)-2-hydroxy-2-methylpropanamide]
- biomarkers of bone turnover: No useful trends
- breast cancer biomarker CA 27-29: did not demonstrate any useful trends
